These are yes or no findings as the source states them, for the method shown. Some results given as binding are weak or reduced against the parent protein; the word gives no strength.
Experiments:
[1] = target: T1, (35S)biglycan from cultured human arterial smooth muscle cells (human) (UniProt P21810); test: summary table, proteoglycan binding (biglycan and versican were the proteoglycans tested)
T1 sequence (glycosaminoglycan chains metabolically labeled with (35S)SO4, looked up): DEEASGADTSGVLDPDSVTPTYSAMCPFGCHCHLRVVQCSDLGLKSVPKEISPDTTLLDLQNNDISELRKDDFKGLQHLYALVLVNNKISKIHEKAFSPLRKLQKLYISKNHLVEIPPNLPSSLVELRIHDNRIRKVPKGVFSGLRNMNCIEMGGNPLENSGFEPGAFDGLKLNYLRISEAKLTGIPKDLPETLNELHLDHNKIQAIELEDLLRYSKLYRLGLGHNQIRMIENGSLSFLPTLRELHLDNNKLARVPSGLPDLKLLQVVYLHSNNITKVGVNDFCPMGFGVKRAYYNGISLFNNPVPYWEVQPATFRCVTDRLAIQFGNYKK

Protein sequences, listed by entry. Tags and fused reporters are not part of them. Residues count along the entry.
UniProt P13611, residues 21-3396: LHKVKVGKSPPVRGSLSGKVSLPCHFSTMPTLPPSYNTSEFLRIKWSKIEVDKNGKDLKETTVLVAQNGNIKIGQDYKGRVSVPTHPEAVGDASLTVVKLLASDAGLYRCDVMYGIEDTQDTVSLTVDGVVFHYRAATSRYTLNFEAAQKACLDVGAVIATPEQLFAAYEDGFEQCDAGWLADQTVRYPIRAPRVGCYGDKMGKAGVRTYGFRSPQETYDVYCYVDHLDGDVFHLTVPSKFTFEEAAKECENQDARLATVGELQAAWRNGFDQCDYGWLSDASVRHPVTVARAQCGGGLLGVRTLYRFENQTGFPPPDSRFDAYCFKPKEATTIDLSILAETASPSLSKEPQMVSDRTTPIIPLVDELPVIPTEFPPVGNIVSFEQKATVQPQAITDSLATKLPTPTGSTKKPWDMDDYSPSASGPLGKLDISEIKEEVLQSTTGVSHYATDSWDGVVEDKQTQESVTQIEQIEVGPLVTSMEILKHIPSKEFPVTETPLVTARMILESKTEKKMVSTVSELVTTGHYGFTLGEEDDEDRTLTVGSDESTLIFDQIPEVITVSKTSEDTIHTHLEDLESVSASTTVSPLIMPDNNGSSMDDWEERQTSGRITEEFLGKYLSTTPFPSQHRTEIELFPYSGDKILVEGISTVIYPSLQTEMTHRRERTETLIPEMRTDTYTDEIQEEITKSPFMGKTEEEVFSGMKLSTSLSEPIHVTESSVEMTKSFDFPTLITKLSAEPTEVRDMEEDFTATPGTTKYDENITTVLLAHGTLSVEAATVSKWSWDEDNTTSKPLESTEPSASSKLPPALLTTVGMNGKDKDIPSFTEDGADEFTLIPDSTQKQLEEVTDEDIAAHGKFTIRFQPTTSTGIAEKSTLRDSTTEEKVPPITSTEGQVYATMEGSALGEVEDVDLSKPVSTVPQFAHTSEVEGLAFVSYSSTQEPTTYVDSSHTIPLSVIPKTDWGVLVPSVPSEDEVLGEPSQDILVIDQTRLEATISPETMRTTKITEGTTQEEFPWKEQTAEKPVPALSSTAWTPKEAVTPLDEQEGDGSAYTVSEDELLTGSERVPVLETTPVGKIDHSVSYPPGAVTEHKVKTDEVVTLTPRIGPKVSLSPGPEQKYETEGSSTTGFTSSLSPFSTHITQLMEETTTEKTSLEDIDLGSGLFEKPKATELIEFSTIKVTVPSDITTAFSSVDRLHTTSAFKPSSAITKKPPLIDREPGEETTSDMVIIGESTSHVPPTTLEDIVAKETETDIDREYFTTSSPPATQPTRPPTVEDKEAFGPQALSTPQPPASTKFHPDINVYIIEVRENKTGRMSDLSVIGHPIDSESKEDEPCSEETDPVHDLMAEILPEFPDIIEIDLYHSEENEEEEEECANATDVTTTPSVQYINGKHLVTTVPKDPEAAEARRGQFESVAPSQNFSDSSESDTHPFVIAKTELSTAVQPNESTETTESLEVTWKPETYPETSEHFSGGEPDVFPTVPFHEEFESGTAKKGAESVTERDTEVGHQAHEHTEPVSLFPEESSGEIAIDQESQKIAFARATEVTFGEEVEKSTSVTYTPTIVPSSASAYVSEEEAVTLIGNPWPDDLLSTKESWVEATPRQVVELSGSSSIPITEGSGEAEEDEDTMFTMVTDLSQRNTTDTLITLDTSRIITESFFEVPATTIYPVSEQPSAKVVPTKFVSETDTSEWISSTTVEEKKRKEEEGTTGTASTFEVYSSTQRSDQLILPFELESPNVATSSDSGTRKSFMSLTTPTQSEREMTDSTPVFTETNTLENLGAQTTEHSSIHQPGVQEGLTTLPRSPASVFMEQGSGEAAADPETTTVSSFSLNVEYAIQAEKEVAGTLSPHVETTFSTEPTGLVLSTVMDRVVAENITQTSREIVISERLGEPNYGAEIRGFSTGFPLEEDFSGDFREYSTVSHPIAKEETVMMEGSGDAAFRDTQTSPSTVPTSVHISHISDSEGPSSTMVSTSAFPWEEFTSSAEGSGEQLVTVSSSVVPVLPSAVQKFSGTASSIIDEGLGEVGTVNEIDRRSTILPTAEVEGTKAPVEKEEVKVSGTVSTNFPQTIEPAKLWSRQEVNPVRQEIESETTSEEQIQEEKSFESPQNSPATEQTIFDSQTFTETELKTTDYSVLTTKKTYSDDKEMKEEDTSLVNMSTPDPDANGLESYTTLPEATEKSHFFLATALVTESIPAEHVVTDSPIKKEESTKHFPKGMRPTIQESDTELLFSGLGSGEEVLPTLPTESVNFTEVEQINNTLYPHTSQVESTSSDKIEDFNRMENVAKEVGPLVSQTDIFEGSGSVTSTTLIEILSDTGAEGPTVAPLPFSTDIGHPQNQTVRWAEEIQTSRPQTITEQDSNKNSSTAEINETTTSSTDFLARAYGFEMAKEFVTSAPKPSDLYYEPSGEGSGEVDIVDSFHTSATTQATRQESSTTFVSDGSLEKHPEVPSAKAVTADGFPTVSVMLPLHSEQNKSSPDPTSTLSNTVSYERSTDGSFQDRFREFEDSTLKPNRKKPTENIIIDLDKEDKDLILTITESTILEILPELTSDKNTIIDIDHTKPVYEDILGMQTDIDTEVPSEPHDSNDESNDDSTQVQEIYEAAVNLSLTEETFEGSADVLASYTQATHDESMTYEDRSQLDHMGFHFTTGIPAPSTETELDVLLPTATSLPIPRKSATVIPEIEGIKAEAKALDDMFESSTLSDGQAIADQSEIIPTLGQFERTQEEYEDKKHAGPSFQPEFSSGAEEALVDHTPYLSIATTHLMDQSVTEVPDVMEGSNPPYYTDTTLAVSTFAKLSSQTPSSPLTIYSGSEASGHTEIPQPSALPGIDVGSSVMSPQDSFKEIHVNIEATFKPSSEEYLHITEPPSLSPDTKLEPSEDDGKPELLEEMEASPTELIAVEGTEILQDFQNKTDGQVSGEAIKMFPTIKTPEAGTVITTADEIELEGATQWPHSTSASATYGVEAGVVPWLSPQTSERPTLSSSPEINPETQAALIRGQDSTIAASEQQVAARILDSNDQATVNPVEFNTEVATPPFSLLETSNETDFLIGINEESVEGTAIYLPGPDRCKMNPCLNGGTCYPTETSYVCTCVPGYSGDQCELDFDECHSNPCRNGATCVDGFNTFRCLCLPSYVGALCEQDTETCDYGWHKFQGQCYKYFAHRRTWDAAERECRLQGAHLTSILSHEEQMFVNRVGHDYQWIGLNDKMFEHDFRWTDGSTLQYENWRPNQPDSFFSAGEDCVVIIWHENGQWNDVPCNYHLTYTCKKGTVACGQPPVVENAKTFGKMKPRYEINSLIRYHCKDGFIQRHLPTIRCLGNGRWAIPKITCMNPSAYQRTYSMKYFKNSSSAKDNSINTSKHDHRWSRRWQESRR

[2] = target: (35S)versican from cultured human arterial smooth muscle cells (human) (UniProt P13611); test: as above
[3] = target: T1, (35S)biglycan from cultured human arterial smooth muscle cells (human); test: gel-mobility shift, three independent experiments
[4] = target: (35S)versican from cultured human arterial smooth muscle cells (human) (UniProt P13611); test: gel-mobility shift, three independent experiments
[5] = target: (35S)versican from cultured human arterial smooth muscle cells (human) (UniProt P13611); test: gel-mobility shift
[6] = target: (35S)versican from cultured human arterial smooth muscle cells (human) (UniProt P13611); test: gel-mobility shift, data not shown

Substance | binding [2] | binding [4] | also measured
R3500Q LDL (recombinant LDL, human apo-B100 with glutamine for arginine at residue 3500) (from UniProt P04114 28-4563) (ligand) | binds | binds | binding [1]: binds; binding [3]: binds
RK3359-3369SA LDL (recombinant LDL, human apo-B100 with the arginines of Site B changed to serines and the lysines to alanines) (from UniProt P04114 28-4563) (ligand) |  | binds | binding [5]: binds
human plasma LDL (from UniProt P04114 28-4563) (ligand) |  | binds | 
recombinant control LDL without the 'Leu-Leu' mutation (LDL generated by the unmodified apo-B100 P1 bacteriophage clone) (from UniProt P04114 28-4563) (ligand) |  |  | binding [6]: binds
recombinant control LDL (human apo-B100 with leucine in place of glutamine at position 2153) (from UniProt P04114 28-4563) (ligand) | binds | binds | 
K3363E LDL (recombinant LDL, human apo-B100 with glutamic acid for lysine at residue 3363) (from UniProt P04114 28-4563) (ligand) |  | binds | 
